# In the supplement of paper PMC4635364:
# Where a name gives a salt, the structure may show the parent alone. The list shows a part of the results. Repeats in this data set agree poorly, so a single value says little.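 Cells: ReNCell VM human fetal ventral-midbrain neural progenitors, differentiated mitogen-free. Blinded raters compared doublecortin-stained (early neurons) or tyrosine hydroxylase-stained (dopaminergic neurons) images with untreated wells, where 0 means no change. After repeats and both raters were averaged, compounds scoring 2 or above became hits for retesting.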
# What was measured:
# [1] = system: ReNCell VM; assay: neuronal differentiation score (DCX+ cell fraction vs untreated, manual image score) (score (-3 to 3)); higher = more neuronal differentiation; conditions: 2 uM, 2 weeks
# [2] = system: ReNCell VM; assay: dopaminergic neuron differentiation score (TH+ cell fraction vs untreated, manual image score) (score (0 to 3)); higher = more TH+ dopaminergic neuron differentiation; conditions: 2 uM, 4 weeks, BDNF 10 ng/ml + GDNF 10 ng/ml
smiles,measurement,setting,value
O=C(NC(=O)c1c(F)cccc1F)Nc1cc(Cl)c(OC(F)(F)C(F)C(F)(F)F)cc1Cl (stereo unspecified),neuronal differentiation score,[1]; library: Spectrum,inactive: 0
same,dopaminergic neuron differentiation score,[2]; library: Spectrum,inactive: 0
COc1cc([C@@H]2c3cc4c(cc3[C@@H](O)[C@H]3COC(=O)[C@H]23)OCO4)cc(OC)c1O,neuronal differentiation score,[1]; library: Spectrum,inactive: 0
same,dopaminergic neuron differentiation score,[2]; library: Spectrum,inactive: 0
CC(Cc1ccc(OCC(=O)O)cc1)NCC(O)c1cccc(Cl)c1 (stereo unspecified),neuronal differentiation score,[1]; library: LOPAC,inactive: 0
same,dopaminergic neuron differentiation score,[2]; library: LOPAC,inactive: 0
C[C@H]1C(=O)O[C@@H]2CCN3CC=C(COC(=O)[C@](C)(O)[C@]1(C)O)[C@H]23 [Monocrotaline],neuronal differentiation score,[1]; library: Phytochemical,inactive: 0
same,dopaminergic neuron differentiation score,[2]; library: Phytochemical,inactive: 0
CC(C)[N+](C)(CCC(C(N)=O)(c1ccccc1)c1ccccc1)C(C)C [Isopropamide iodide],neuronal differentiation score,[1]; library: Prestwick,inactive: 0
same,dopaminergic neuron differentiation score,[2]; library: Prestwick,inactive: 0
COc1c2c(cc3c1OCO3)CCN(C)C2 [Hydrocotarnine hydrobromide],neuronal differentiation score,[1]; library: Phytochemical,inactive: 0
same,dopaminergic neuron differentiation score,[2]; library: Phytochemical,inactive: 0
N=C(N)NN,neuronal differentiation score,[1]; library: Spectrum,inactive: 0
same,dopaminergic neuron differentiation score,[2]; library: Spectrum,inactive: 0
C[C@]12CC[C@H](O)C[C@H]1CC[C@@H]1[C@@H]2C[C@@H](O)[C@]2(C)[C@@H](C3=CC(=O)OC3)CC[C@]12O,neuronal differentiation score,[1]; library: Spectrum,inactive: 0
same,dopaminergic neuron differentiation score,[2]; library: Spectrum,inactive: 0
CCCN(CCC)CCc1ccc(O)c(O)c1 [Dipropyldopamine hydrobromide],neuronal differentiation score,[1]; library: LOPAC,inactive: 0
same,dopaminergic neuron differentiation score,[2]; library: LOPAC,inactive: 0
CNc1ccc2oc(C[C@H]3O[C@@]4(CC[C@H]3C)O[C@H]([C@H](C)C(=O)c3ccc[nH]3)[C@H](C)C[C@H]4C)nc2c1C(=O)O [Calcimycin],neuronal differentiation score,[1]; library: LOPAC,inactive: 0
same,dopaminergic neuron differentiation score,[2]; library: LOPAC,inactive: 0
COc1cc2c(cc1O)C[C@H]1c3c(cc(O)c(OC)c3-2)CCN1C,neuronal differentiation score,[1]; library: Spectrum,inactive: 0
same,dopaminergic neuron differentiation score,[2]; library: Spectrum,inactive: 0
CC1(C)C2CC(=O)[C@]3(C)C(CC[C@@]4(C)[C@H](c5ccoc5)OC(=O)[C@H]5O[C@]543)[C@@]2(C)C(=O)C[C@H]1O (stereo partly specified),neuronal differentiation score,[1]; library: Spectrum,inactive: 0
same,dopaminergic neuron differentiation score,[2]; library: Spectrum,inactive: 0
CC(=O)O[C@H]1C(=O)[C@@]2(C)[C@H]([C@H](OC(=O)c3ccccc3)[C@]3(O)C[C@H](O)C(C)=C1C3(C)C)[C@]1(OC(C)=O)CO[C@@H]1C[C@@H]2O,neuronal differentiation score,[1]; library: Spectrum,inactive: 0
same,dopaminergic neuron differentiation score,[2]; library: Spectrum,inactive: 0
Oc1ccc2c3c1O[C@H]1c4oc5ccccc5c4C[C@@]4(O)[C@@H](C2)N(CC2CC2)CC[C@]314 [Naltriben mesylate],neuronal differentiation score,[1]; library: Tocriscreen,inactive: 0
same,dopaminergic neuron differentiation score,[2]; library: Tocriscreen,inactive: 0
C[N+]1(C)[C@@H]2CC[C@H]1C[C@@H](OC(=O)C(CO)c1ccccc1)C2 (stereo partly specified) [Methylatropine nitrate],neuronal differentiation score,[1]; library: Prestwick,inactive: 0
same,dopaminergic neuron differentiation score,[2]; library: Prestwick,inactive: 0
OC(c1ccccc1)(c1ccccc1)C1CCNCC1 [Azacyclonol],neuronal differentiation score,[1]; library: Prestwick,inactive: -1
same,dopaminergic neuron differentiation score,[2]; library: Prestwick,inactive: 0
"CC12NC(Cc3ccccc31)c1ccccc12 (single isomer, unassigned; (+)) [(+)-MK 801 maleate]",neuronal differentiation score,[1]; library: Tocriscreen,inactive: 0
same,dopaminergic neuron differentiation score,[2]; library: Tocriscreen,inactive: 0
C=C1C/C(=C/C)C(=O)O[C@@H]2CCN3CC=C(COC(=O)[C@]1(C)O)[C@H]23 [Seneciphylline],neuronal differentiation score,[1]; library: Phytochemical,inactive: 0
same,dopaminergic neuron differentiation score,[2]; library: Phytochemical,inactive: 0
CC(C)C[C@H](CN)CC(=O)O,neuronal differentiation score,[1]; library: Spectrum,inactive: 0
same,dopaminergic neuron differentiation score,[2]; library: Spectrum,inactive: 0
c1ccc2c(N3CCNCC3)cccc2c1 [1-(1-Naphthyl)piperazine hydrochloride],neuronal differentiation score,[1]; library: LOPAC,inactive: 0
same,dopaminergic neuron differentiation score,[2]; library: LOPAC,inactive: 0
C[C@H]1CCC/C=C/[C@@H]2C[C@H](O)C[C@H]2[C@H](O)/C=C/C(=O)O1 [Brefeldin A],neuronal differentiation score,[1]; library: Tocriscreen,inactive: 0
same,dopaminergic neuron differentiation score,[2]; library: Tocriscreen,inactive: 0
Cc1ccc(-c2nc3ccc(C)cn3c2CC(=O)N(C)C)cc1,neuronal differentiation score,[1]; library: Spectrum,inactive: 0
same,dopaminergic neuron differentiation score,[2]; library: Spectrum,inactive: 0
COc1cccc(C2(O)CCCCC2CN(C)C)c1 (stereo unspecified),neuronal differentiation score,[1]; library: Spectrum,inactive: 0
same,dopaminergic neuron differentiation score,[2]; library: Spectrum,inactive: 0
COc1cc(C(=O)OC2CC3CCC(C2)N3C)ccc1O (stereo unspecified) [Fillalbin],neuronal differentiation score,[1]; library: Phytochemical,inactive: 0
same,dopaminergic neuron differentiation score,[2]; library: Phytochemical,inactive: 0
CN1CCCCC1c1ccc(-c2cccnc2)nc1 (stereo unspecified) [anabasamine],neuronal differentiation score,[1]; library: Natural,inactive: 0
same,dopaminergic neuron differentiation score,[2]; library: Natural,inactive: 0
C[C@@H]1CN([C@H]2CC[C@](C#N)(c3ccc(F)cc3)CC2)CC[C@]1(C(=O)O)c1ccccc1 [Levocabastine hydrochloride],neuronal differentiation score,[1]; library: Prestwick,inactive: 0
same,dopaminergic neuron differentiation score,[2]; library: Prestwick,inactive: 0
CC(=O)[C@H]1CC[C@H]2[C@@H]3CC[C@H]4C[C@H](O)CC[C@]4(C)[C@H]3C(=O)C[C@]12C [Alfaxalone],neuronal differentiation score,[1]; library: Prestwick,inactive: 0
same,dopaminergic neuron differentiation score,[2]; library: Prestwick,inactive: 0
COc1ccc2c(c1)c(CCN1CCOCC1)c(C)n2C(=O)c1cccc(Cl)c1Cl,neuronal differentiation score,[1]; library: Tocriscreen,inactive: 0
same,dopaminergic neuron differentiation score,[2]; library: Tocriscreen,inactive: 0
CC1(C)C(C=C(Cl)Cl)C1C(=O)OCc1cccc(Oc2ccccc2)c1 (stereo unspecified),neuronal differentiation score,[1]; library: Spectrum,inactive: 1
same,dopaminergic neuron differentiation score,[2]; library: Spectrum,inactive: 0
CC(C)(N)Cc1ccccc1 [Phentermine hydrochloride],neuronal differentiation score,[1]; library: Prestwick,inactive: 0
same,dopaminergic neuron differentiation score,[2]; library: Prestwick,inactive: 0
O[C@H]1[C@H](O)[C@@H](O)CN2CC[C@H](O)[C@H]12 [castanospermine],neuronal differentiation score,[1]; library: Natural,inactive: 0
same,dopaminergic neuron differentiation score,[2]; library: Natural,inactive: 0
CC(=O)Oc1ccc(/C=C/c2cc(OC(C)=O)cc(OC(C)=O)c2)cc1,neuronal differentiation score,[1]; library: Spectrum,inactive: 0
same,dopaminergic neuron differentiation score,[2]; library: Spectrum,inactive: 0
COc1ccc(C(CN(C)C)C2(O)CCCCC2)cc1 (stereo unspecified),neuronal differentiation score,[1]; library: Spectrum,inactive: 0
same,dopaminergic neuron differentiation score,[2]; library: Spectrum,inactive: 0

# Some of the entries above, reformatted.
smiles	measurement	setting	value
c1ccc2c(N3CCNCC3)cccc2c1 [1-(1-Naphthyl)piperazine hydrochloride]	neuronal differentiation score	[1]; library: LOPAC	inactive: 0
same	dopaminergic neuron differentiation score	[2]; library: LOPAC	inactive: 0
C[C@H]1CCC/C=C/[C@@H]2C[C@H](O)C[C@H]2[C@H](O)/C=C/C(=O)O1 [Brefeldin A]	neuronal differentiation score	[1]; library: Tocriscreen	inactive: 0
same	dopaminergic neuron differentiation score	[2]; library: Tocriscreen	inactive: 0
Cc1ccc(-c2nc3ccc(C)cn3c2CC(=O)N(C)C)cc1	neuronal differentiation score	[1]; library: Spectrum	inactive: 0
same	dopaminergic neuron differentiation score	[2]; library: Spectrum	inactive: 0
COc1cccc(C2(O)CCCCC2CN(C)C)c1 (stereo unspecified)	neuronal differentiation score	[1]; library: Spectrum	inactive: 0
same	dopaminergic neuron differentiation score	[2]; library: Spectrum	inactive: 0
COc1cc(C(=O)OC2CC3CCC(C2)N3C)ccc1O (stereo unspecified) [Fillalbin]	neuronal differentiation score	[1]; library: Phytochemical	inactive: 0
same	dopaminergic neuron differentiation score	[2]; library: Phytochemical	inactive: 0
CN1CCCCC1c1ccc(-c2cccnc2)nc1 (stereo unspecified) [anabasamine]	neuronal differentiation score	[1]; library: Natural	inactive: 0
same	dopaminergic neuron differentiation score	[2]; library: Natural	inactive: 0
C[C@@H]1CN([C@H]2CC[C@](C#N)(c3ccc(F)cc3)CC2)CC[C@]1(C(=O)O)c1ccccc1 [Levocabastine hydrochloride]	neuronal differentiation score	[1]; library: Prestwick	inactive: 0
